# Results published in patent US20100130725A1, “METHODS FOR CHARACTERIZING MOLECULES” (priority 2008, published 2010).
# Test system: quiescent A431 cells
# Test: Epic DMR two-step assay, antagonist mode: modulation of marker-induced DMR signals in quiescent A431 cells
# Assay type: cell-based, human
# Settings: 10 μM, score +1 per 10% modulation
# Method: For biosensor cellular assays, molecule solutions were made by diluting the stored concentrated solutions with the HBSS (1× Hanks balanced salt solution, plus 20 mM Hepes, pH 7.1), and transferred into a 384 well polypropylene molecule storage plate to prepare a molecule source plate. Both molecule and marker source plates were made separately when a two-step assay was performed. In parallel, the cells were washed twice with the HBSS and maintained in 30 μl of the HBSS to prepare a cell assay plate. Both the cell assay plate and the molecule and marker source plate(s) were then incubated in the hotel of the reader system. After ˜1 hr of incubation the baseline wavelengths of all biosensors in the cell assay microplate were recorded and normalized to zero. Afterwards, a 2 to 10 minute continuous recording was carried out to establish a baseline, and to ensure that the cells reached a steady state. Cellular responses were then triggered by pipetting 10 μl of the marker solutions into the cell assay plate using the on-board liquid handler.
# Next, the target specificity and signaling pathway of EGF was probed using a second set of assays.
# A first panel of markers was contacted with quiescent A431 cells at concentrations close to each of the marker's EC80 or EC100, and DMR measurements were obtained with and EPIC® system. This panel of markers was selected from a library of markers identified in A431 cells using Epic® cellular assays. This panel included epidermal growth factor (EGF), epinephrine, nicotinic acid, and histamine. Each of these markers leads to a wide array of cell signaling. […] Each DMR signal represents an averaged response of 4 replicates.
# A DMR index was generated for four ligand molecules. Quiescent A431 and proliferating A549 cells were separately exposed to the ligand molecules for about 1 hr to generate their primary profiles, followed by stimulation with each marker at a fixed concentration (as mentioned in FIGS. 7 and 8) for another 1 hr or so to generate secondary profiles of the molecule against the panels of markers in both types of cells. Next, one or more specific DMR parameters were chosen as a readout for plotting the DMR index of the molecule. For the pinacidil DMR response in A549, the amplitude of the N-DMR (i.e., the amplitude 30 min after stimulation) was chosen. For the poly(I:C) DMR response in A549, the amplitude of the late DMR (i.e., the amplitude 50 min after stimulation) was chosen. For the PMA response in A549, the late DMR amplitude (i.e., the amplitude 50 min after stimulation) was chosen.
structure (smiles),measurement,value
CNCCNS(=O)(=O)c1cccc2cnccc12 [H8],"modulation index score, EGF (N-DMR)",−2
same,"modulation index score, EGF (P-DMR)",0.3
same,"modulation index score, epinephrine",−1.6
same,"modulation index score, histamine",1.6
same,"modulation index score, nicotinic acid",1
